Measurements from patent US20090181931A1, “ANTIVIRAL ACTIVITY OF CIDOFOVIR AGAINST ONCOLYTIC VIRUSES” (priority 2008, published 2009).
Several values for one entry are separate records, joined by “and”; a condition that tells them apart may be missing. Identical values can stand only once. Further values from the same series stand in other lists.

Test system: H1299 cells
Experiment: XTT cell viability assay, CDV alone, H1299 cells
Format: cell-based
Settings: CDV 0.32 μM, H1299, no virus, 7 days, Table 4B
Description: Cells frozen in liquid nitrogen were thawed in water bath at 37° C., seeded at T25 flask, and cultured at 70-90% sub-confluent monolayer. Cells were detached with trypsin, and prepared suspension at a concentration of 1.0×10^4 cells/ml.
Cells were seeded in 96 well-plate (100 μL/well, 1000 cells/well), then cultured with 5% CO2 at 37° C.
(§1) Viruses were diluted at MOI of 1 (OBP-301, OBP-202) in H1299 and 5 in A549 (PFU/cell). Medium in each well was removed, 150 μL of diluted virus solution was added to each well of the plate. 2 hours later, medium was aspirated and replaced with fresh medium containing 2% FCS and serially diluted CDV. Cells were incubated with 5% CO2 at 37° C. for 7 days after infection.
as §1, with “0.1 (OBP-401) or 10 (ONYX-015)” for “1 (OBP-301, OBP-202)”, “H1299.” for “H1299 and 5 in A549 (PFU/cell).”, “50” for “150”, “infection. […]” for “infection.”
Medium in each well of plate was removed, and 150 μL of mixture prepared above was added to each well. Plate was incubated with 5% CO2 at 37° C. for 4 hours, and then calculated absorbance at 450 nm and 690 nm. Protection was determined by the formula below: […]

Nc1ccn(C[C@@H](CO)OCP(=O)(O)O)c(=O)n1.O.O [CDV, 1-[(S)-3-hydroxy-2-(phosphonomethoxy)propyl]cytosine dihydrate]
Relative cell viability Ave.: 1.007
Relative cell viability (single wells, dihydrate): 1.003 and 1.008 and 1.020 and 0.998
